Results: US20220064246A1
No constants are given. Whether binding was seen depends on the method and setting. Some entries that bind do so weakly or less than the wild type.

Molecular target: T1, EBI3 (Epstein-Barr virus induced gene 3) subunit (IL-27β), natural, produced by mouse DC cells (CD11c+ cells) (mouse) (UniProt O35228)
T1 sequence (looked up): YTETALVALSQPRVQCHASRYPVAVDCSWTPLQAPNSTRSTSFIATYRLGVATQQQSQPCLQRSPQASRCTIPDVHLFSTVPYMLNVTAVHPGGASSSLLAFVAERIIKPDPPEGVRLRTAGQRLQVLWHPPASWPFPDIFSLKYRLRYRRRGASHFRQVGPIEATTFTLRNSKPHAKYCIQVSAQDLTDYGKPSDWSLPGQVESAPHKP
Assay: sandwich ELISA (EBI3 capture, p40 detection) on supernatant of stimulated mouse CD11c+ DC cells

binding: binds
B1: p40 subunit (subunit beta of IL-12, IL-12β), natural, produced by mouse DC cells (CD11c+ cells) (ligand, UniProt P43432 23-335, looked up)
chain: MWELEKDVYVVEVDWTPDAPGETVNLTCDTPEEDDITWTSDQRHGVIGSGKTLTITVKEFLDAGQYTCHKGGETLSHSHLLLHKKENGIWSTEILKNFKNKTFLKCEAPNYSGRFTCSWLVQRNMDLKFNIKSSSSSPDSRAVTCGMASLSAEKVTLDQRDYEKYSVSCQEDVTCPTAEETLPIELALEARQQNKYENYSTSFFIRDIIKPDPPKNLQMKPLKNSQVEVSWEYPDSWSTPHSYFSLKFFVRIQRKKEKMKETEEGCNQKGAFLVEKTSTEVQCKGGNVCVQAQDRYYNSSCSKWACVPCRVRS
